According to patent US20250122303A1, “TREATMENT AND PREVENTION OF CANCER USING HER3 ANTIGEN-BINDING MOLECULES” (Hummingbird Bioscience Pte. Ltd., priority 2021, published 2025):
Results are given in words; binding and its absence hold for the method and conditions named. Some entries that bind do so weakly or less than the wild type.

Protein sequences, listed by entry. Tags and fused reporters are not part of them. Lines headed by an entry give the natural chain unless they say otherwise; changes in a name come on top. Chains listed by the source or under a name are the forms on record and can include a tag or linker. Residues count along the entry.
cynomolgus macaque HER3 (G7PIG5, form named): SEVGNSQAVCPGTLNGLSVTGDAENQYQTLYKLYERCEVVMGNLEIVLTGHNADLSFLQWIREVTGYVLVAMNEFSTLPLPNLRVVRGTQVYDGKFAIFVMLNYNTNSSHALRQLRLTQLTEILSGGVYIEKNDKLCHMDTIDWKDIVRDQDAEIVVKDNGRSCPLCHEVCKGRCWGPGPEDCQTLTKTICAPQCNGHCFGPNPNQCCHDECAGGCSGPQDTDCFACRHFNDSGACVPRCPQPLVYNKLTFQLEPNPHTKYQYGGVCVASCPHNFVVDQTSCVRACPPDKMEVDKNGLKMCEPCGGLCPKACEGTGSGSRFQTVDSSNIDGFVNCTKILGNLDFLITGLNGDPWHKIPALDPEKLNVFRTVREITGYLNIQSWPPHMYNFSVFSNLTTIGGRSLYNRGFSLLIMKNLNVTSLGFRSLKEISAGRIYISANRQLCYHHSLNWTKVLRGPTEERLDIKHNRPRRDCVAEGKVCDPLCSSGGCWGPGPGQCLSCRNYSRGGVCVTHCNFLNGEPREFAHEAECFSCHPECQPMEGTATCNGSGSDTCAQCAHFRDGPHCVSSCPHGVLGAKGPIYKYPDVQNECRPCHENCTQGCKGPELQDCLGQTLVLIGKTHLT
UniProt Q61526, residues 20-641: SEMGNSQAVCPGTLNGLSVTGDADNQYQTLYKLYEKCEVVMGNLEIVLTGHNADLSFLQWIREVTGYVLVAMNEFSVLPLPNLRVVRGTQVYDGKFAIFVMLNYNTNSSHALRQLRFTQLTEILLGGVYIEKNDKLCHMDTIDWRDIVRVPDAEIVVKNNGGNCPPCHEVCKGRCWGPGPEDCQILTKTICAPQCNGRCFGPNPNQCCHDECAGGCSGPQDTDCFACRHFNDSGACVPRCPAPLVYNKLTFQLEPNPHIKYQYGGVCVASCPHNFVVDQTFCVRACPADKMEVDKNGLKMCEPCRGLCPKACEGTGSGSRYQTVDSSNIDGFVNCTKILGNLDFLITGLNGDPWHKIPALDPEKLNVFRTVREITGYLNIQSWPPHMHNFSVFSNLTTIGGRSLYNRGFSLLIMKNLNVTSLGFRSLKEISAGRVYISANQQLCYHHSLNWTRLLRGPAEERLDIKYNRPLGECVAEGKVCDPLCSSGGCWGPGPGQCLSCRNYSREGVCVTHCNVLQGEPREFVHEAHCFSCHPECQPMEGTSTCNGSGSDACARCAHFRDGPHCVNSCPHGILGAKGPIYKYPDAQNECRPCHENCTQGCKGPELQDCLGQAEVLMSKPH
UniProt Q62799, residues 20-641: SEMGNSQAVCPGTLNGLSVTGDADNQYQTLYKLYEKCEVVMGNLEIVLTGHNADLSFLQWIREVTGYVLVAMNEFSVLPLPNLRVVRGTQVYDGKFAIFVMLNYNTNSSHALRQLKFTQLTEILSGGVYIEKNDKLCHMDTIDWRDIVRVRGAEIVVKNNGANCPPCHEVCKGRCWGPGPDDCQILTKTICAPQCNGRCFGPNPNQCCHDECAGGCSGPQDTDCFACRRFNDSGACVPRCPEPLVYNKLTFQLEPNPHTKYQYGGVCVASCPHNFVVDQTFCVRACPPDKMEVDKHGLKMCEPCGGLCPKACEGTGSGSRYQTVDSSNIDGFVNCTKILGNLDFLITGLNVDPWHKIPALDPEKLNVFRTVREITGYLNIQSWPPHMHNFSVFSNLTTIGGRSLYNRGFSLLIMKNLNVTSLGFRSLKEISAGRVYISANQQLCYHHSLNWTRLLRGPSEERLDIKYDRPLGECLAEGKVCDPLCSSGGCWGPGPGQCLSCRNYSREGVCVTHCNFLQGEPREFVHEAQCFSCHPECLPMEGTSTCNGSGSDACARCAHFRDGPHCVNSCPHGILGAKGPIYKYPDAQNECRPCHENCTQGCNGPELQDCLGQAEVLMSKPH
UniProt P21860, residues 20-643: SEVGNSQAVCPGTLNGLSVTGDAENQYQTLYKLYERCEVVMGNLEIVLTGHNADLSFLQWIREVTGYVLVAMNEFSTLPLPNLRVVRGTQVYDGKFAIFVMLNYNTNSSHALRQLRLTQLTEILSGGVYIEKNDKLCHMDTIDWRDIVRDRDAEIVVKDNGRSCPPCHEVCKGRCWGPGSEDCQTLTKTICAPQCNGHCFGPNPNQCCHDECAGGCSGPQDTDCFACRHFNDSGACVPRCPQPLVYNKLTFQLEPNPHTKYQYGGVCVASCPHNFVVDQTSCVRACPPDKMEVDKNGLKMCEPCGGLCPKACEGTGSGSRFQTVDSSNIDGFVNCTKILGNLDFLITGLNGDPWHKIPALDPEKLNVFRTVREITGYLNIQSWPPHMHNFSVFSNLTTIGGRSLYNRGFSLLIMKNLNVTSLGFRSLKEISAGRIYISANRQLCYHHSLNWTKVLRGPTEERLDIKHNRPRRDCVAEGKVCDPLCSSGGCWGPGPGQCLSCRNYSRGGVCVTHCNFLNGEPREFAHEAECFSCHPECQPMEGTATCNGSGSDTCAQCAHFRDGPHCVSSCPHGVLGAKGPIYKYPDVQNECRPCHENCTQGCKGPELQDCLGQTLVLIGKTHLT

How the values were obtained:
[1] = molecular target: cynomolgus macaque HER3 (cynomolgus macaque) (UniProt G7PIG5); test: ELISA, plate coated with 0.1 ug/ml cynomolgus HER3, antibody titrated, absorbance 450 nm
[2] = molecular target: cynomolgus macaque HER3 (cynomolgus macaque) (UniProt G7PIG5); test: ELISA, plate coated with 0.1 µg/ml target, antibody titrated from 10 µg/ml
[3] = molecular target: mouse HER3 (mouse) (UniProt Q61526); test: ELISA, plate coated with 0.1 ug/ml mouse HER3, antibody titrated, absorbance 450 nm
[4] = molecular target: human HER2 (human) (UniProt P04626); test: ELISA, plate coated with 0.1 ug/ml human HER2, antibody titrated, absorbance 450 nm
[5] = molecular target: human EGFR (human) (UniProt P00533); test: ELISA, plate coated with 0.1 µg/ml target, antibody titrated from 10 µg/ml
[6] = molecular target: human HER2 (human) (UniProt P04626); test: as above
[7] = molecular target: rat HER3 (rat) (UniProt Q62799); test: as above
[8] = molecular target: mouse HER3 (mouse) (UniProt Q61526); test: as above
[9] = molecular target: His-tagged human HER3 (human) (UniProt P21860); test: BLI (Octet QK384), antibody on anti-human IgG capture tips, His-tagged human HER3 in solution
[10] = molecular target: human HER3 expressed on cells (HEK293 HER3 O/E cells) (human) (UniProt P21860); test: flow cytometry, HEK293 cells overexpressing human HER3, 20 ug/ml antibody, FITC anti-Fc secondary
[11] = molecular target: rat HER3 (rat) (UniProt Q62799); test: ELISA, plate coated with 0.1 ug/ml rat HER3, antibody titrated, absorbance 450 nm
[12] = molecular target: human HER3 expressed on cells (HEK293 HER3 O/E cells) (human) (UniProt P21860); test: flow cytometry on HEK293 cells overexpressing human HER3, 20 µg/ml antibody
[13] = molecular target: human EGFR (human) (UniProt P00533); test: ELISA, plate coated with 0.1 ug/ml human EGFR, antibody titrated, absorbance 450 nm
[14] = molecular target: human HER3 polypeptide (human) (UniProt P21860); test: ELISA, plate coated with 0.1 ug/ml human HER3, antibody titrated, absorbance 450 nm

Measured: binding

B1: anti-HER3 clone 4-35-B2 IgG1 (antibody, V domains shown)
VH: EIQLQQSGPELVKPGASVKVSCKASGYSFTDYNMYWVKQSHGKSLEWIGHINPYNGGTTYNQKFKGRATLTVDKSSSTAFMHLNSLTSEDSAVYFCVSLRWGAMDYWGQGTSVTVSS
VL: QIVLTQSPALMSASPGEKVTMTCSASSSVSYMYWYQQKPRSSPKPWIYLTSNLASGVPARFSGSGSGTSYSLTISSMEAEDAATYYCQQWNSNPYTFGGGTKLEIKR
binds: [1] | [2]

B2: anti-HER3 clone 4-35-B4 IgG1 (antibody, V domains shown)
VH: EVQLQQSGAELVKPGASVKLSCTASGFNIKDTYIHWVKQRPDQGLEWIGKIIDPANGNTNYDPKFQGKATITADTSSNTAYLQLSSLSSEDTAVYFCARGLHWGQGTTLTVSS
VL: DIVLTQSPASLAVSLGQRATISCRASKSVSTSGYSYMHWYQQKPGQPPKLLIYLASNLESGVPARFSGSGSGTDFTLNIHPVEEEDAATYYCQHSRELPYTFGGGTKLEIKR
binds: [1] | [3] | [4] | [5] | [6] | [2] | [7] | [8] | [9] | [10] | [11] | [12] | [13] | [14]
